This is one part of the list.
Legend:
Assay in all cases: log2 fold change, soluble protein after heating vs DMSO (PISA); higher = thermal stabilisation; K562 cells, 10 uM, 30 min; active = over 0.2 and 3.5 SD of the protein, either way, in both replicates (recomputed)
[1] = compound: CC1=C(C=C(C=C1)NC(=O)C2=CC(=CC=C2)C(C)(C)C#N)NC3=CC4=C(C=C3)N=CN(C4=O)C
Method in brief: (§1)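 Soluble protein was quantified by TMTpro 16plex LC-MS/MS after channel sums were equalised. It was obtained as the supernatant after 21,000xg for 90 min from pooled aliquots of K562 cells (2×10^6 cells/mL, 10 μM compound, 30 min) heated for 3 min across 48°C-58°C and extracted in PBS with 0.5% NP-40 at 4°C. Thermal stability values are relative to control samples and come from duplicates. They are given as log2 fold changes.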

Amino acid sequences for entries named in this document (tags omitted). A change or cut given only in a name is not applied to a line headed by its entry.
UniProt Q9Y263: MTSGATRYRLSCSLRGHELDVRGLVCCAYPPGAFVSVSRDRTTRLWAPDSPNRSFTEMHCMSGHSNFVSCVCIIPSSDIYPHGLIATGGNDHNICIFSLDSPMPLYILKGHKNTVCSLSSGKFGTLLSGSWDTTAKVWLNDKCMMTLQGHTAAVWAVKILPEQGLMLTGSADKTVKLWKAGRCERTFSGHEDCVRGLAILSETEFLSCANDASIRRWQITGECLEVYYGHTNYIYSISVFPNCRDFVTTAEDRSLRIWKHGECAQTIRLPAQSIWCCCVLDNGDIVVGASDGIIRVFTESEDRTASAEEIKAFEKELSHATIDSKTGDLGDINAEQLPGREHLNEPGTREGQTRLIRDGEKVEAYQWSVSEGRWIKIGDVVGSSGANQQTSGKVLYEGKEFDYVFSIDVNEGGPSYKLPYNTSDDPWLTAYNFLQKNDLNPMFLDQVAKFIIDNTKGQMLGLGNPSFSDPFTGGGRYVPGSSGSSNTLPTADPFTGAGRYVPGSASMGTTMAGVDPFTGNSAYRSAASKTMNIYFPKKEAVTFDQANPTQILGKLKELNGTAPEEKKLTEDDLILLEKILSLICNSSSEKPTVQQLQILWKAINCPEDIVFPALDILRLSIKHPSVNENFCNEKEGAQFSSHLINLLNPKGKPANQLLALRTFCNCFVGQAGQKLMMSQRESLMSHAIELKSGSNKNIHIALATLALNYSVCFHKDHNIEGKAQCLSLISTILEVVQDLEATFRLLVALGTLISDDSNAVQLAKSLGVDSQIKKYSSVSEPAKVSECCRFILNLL
UniProt Q9UBF8: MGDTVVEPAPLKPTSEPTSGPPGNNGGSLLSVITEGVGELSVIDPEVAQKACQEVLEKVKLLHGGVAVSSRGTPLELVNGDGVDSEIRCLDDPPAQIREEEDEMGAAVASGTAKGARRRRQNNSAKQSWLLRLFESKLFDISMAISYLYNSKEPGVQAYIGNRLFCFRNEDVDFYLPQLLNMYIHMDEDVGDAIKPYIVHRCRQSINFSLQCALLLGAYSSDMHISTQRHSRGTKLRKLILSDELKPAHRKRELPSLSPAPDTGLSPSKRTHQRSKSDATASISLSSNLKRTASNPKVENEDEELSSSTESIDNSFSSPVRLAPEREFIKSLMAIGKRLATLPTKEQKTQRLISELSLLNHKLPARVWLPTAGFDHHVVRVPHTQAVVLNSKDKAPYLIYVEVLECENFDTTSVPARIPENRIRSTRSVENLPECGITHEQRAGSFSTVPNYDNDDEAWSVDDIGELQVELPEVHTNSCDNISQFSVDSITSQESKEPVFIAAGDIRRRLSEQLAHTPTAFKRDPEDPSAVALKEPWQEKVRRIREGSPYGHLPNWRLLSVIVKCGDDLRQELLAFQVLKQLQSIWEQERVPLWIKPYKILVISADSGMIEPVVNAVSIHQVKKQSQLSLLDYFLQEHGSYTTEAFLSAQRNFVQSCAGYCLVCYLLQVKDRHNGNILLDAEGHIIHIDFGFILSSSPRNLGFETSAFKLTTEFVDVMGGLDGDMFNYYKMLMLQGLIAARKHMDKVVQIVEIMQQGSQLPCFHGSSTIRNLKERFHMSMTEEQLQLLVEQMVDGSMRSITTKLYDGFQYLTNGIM
UniProt O15173: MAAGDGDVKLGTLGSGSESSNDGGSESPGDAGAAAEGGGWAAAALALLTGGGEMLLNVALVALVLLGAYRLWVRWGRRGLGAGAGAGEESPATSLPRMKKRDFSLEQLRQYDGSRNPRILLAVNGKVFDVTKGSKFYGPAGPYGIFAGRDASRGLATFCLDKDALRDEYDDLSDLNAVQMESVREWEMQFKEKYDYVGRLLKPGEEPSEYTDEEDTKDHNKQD
UniProt Q8NEB9, whole entry, looked up: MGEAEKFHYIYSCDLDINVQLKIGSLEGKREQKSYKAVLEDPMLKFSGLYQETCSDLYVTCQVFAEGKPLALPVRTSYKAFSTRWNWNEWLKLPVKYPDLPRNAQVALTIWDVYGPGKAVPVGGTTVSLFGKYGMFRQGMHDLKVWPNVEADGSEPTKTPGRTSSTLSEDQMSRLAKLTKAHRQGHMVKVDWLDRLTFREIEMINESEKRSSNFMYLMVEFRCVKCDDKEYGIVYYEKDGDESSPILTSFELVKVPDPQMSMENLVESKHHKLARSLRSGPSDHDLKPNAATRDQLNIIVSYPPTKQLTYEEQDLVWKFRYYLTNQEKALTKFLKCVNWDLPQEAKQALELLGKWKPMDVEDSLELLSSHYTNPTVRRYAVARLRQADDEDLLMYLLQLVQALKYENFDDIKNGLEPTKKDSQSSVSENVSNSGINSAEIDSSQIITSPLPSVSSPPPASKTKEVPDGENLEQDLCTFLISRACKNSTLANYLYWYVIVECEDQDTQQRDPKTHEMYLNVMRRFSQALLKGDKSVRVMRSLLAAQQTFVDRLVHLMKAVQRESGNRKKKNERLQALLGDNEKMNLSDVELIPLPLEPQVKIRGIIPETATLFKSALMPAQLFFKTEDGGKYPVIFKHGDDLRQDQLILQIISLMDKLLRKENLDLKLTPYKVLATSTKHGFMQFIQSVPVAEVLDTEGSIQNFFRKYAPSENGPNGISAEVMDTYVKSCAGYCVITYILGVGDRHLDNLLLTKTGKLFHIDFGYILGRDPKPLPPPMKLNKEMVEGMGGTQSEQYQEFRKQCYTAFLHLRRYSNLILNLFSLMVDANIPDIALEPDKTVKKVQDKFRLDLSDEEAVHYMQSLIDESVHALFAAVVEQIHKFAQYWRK
UniProt Q93100: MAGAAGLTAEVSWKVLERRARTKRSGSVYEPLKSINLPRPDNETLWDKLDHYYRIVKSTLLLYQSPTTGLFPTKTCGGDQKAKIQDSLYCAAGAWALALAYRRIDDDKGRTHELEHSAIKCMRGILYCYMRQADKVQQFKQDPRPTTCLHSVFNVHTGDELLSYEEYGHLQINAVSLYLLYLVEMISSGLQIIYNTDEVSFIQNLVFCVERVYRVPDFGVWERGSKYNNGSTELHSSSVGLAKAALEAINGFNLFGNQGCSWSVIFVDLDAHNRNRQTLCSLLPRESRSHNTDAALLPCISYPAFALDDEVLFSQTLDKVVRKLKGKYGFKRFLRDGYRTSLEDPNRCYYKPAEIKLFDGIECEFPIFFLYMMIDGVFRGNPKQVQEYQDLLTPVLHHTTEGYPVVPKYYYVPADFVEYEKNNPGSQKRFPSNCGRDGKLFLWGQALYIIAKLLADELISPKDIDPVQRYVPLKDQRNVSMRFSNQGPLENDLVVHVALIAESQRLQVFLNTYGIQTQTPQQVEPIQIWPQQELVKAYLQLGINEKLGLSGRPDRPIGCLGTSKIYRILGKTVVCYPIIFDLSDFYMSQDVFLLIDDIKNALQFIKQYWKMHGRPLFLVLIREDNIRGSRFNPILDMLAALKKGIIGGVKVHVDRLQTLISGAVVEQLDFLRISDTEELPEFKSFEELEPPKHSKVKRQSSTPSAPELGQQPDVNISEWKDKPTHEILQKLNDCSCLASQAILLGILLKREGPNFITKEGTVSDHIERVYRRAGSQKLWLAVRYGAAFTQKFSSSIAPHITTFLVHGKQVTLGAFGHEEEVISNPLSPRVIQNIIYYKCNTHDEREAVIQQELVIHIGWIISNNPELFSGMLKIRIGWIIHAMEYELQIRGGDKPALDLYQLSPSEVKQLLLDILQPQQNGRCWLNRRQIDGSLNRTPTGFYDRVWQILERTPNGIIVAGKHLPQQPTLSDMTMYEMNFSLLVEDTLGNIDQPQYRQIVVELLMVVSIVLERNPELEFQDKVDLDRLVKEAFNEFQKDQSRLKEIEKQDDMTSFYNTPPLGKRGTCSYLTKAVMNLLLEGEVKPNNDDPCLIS
UniProt P51178: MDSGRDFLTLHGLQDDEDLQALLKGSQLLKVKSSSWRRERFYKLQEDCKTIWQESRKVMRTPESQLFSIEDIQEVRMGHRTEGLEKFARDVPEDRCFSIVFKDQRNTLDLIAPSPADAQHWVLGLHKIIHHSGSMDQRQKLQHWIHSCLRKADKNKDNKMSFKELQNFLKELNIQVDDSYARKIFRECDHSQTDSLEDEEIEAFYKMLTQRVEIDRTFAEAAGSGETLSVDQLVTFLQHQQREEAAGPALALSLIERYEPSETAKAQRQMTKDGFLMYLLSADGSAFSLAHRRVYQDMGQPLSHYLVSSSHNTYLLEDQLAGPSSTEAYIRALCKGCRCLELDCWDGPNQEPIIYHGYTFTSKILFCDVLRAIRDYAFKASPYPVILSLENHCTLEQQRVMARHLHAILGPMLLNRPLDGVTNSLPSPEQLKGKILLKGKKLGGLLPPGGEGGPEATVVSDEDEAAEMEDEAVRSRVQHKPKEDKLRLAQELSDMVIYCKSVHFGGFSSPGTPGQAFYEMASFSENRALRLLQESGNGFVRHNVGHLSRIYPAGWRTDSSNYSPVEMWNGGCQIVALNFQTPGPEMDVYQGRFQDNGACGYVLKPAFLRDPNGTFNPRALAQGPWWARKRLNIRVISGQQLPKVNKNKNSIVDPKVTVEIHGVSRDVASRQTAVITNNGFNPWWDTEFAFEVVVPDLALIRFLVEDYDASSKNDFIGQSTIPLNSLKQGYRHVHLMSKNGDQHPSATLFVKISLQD
UniProt Q9UHV9, whole entry, looked up: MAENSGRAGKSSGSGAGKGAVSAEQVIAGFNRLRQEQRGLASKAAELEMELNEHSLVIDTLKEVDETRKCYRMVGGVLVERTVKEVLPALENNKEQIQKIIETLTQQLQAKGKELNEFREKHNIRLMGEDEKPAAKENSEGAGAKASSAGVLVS
UniProt Q7RTV0, whole entry, looked up: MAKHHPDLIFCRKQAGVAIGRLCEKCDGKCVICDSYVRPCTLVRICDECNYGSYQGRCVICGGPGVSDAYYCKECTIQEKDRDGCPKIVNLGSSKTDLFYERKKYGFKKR
UniProt P15735: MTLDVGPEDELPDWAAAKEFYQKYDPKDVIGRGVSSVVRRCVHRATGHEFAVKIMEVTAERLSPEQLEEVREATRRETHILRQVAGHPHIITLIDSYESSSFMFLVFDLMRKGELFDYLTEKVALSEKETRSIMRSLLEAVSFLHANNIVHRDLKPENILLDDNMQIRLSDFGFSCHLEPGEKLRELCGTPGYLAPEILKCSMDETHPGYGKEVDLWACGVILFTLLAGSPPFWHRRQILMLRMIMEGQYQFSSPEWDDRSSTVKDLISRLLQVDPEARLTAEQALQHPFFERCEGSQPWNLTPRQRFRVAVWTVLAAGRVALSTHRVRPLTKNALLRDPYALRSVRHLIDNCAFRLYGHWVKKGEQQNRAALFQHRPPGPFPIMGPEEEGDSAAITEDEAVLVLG
UniProt Q9NRX4: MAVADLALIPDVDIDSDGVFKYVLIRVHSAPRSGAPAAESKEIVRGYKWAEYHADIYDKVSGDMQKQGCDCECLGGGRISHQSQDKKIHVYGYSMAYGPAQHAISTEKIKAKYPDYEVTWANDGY
UniProt O95394: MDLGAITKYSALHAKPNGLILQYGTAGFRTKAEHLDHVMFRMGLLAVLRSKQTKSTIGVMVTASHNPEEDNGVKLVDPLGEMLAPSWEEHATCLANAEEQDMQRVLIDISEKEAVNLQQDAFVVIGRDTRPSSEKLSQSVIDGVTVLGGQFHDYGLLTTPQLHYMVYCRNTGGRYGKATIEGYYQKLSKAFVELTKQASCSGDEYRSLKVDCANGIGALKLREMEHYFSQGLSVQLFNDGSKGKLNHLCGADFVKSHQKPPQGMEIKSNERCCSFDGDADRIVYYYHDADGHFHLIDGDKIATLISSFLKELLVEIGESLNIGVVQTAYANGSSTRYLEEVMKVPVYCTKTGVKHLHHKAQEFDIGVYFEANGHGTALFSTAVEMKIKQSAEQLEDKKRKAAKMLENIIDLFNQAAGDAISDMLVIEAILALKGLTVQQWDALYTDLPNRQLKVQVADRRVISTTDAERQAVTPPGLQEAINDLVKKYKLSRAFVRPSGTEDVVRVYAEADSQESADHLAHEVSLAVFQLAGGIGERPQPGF
UniProt Q00169: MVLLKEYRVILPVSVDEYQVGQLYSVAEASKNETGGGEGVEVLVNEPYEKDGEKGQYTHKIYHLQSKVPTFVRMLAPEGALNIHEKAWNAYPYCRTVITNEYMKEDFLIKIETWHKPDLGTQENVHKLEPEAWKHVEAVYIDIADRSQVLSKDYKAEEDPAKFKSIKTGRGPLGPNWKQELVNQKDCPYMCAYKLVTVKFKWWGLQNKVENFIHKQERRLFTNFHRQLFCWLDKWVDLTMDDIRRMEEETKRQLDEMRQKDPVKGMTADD
UniProt P48426: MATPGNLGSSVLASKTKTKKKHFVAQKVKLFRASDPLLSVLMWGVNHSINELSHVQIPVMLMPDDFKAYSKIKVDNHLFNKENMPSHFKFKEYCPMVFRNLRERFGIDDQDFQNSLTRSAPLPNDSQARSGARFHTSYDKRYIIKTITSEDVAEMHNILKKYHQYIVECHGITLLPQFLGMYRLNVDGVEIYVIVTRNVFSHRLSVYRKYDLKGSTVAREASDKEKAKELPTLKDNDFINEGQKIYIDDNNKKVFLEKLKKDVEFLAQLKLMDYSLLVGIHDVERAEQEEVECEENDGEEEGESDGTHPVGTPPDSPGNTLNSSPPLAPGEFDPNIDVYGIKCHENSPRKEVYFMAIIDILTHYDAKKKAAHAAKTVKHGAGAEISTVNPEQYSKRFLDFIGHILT

[2] = compound: CC1=C(C=C(C=C1)NC(=O)C2=CC(=CC=C2)N(C)C)NC(=O)C3=CC=C(C=C3)O
Method in brief: as §1

[3] = compound: CC1=CC=C(C=C1)SC2=C3C=C(SC3=CN=C2)C(=O)N
Method in brief: as §1

[4] = compound: CC1=NC(=CC=C1)C2=C(N=C(N2)C(C)(C)C)C3=CC4=NC=CN=C4C=C3
Method in brief: as §1

Nexturastat A = compound: CCCCN(Cc1ccc(C(=O)NO)cc1)C(=O)Nc1ccccc1 [Nexturastat A]
Method in brief: as §1

vemurafenib = compound: CCCS(=O)(=O)Nc1ccc(F)c(C(=O)c2c[nH]c3ncc(-c4ccc(Cl)cc4)cc23)c1F [vemurafenib]
Method in brief: as §1

[5] = compound: CCCS(=O)(=O)Nc1ccc(F)c(C(=O)c2c[nH]c3ncc(Cl)cc23)c1F
Method in brief: as §1

[6] = compound: CCCc1cc(C)[nH]c(=O)c1CNC(=O)c1cc(-c2ccnc(N3CCN(C)CC3)c2)cc2c1cnn2C(C)C
Method in brief: as §1

givinostat = compound: CCN(CC)Cc1ccc2cc(COC(=O)Nc3ccc(C(=O)NO)cc3)ccc2c1 [givinostat]
Method in brief: as §1

barasertib = compound: CCN(CCCOc1ccc2c(Nc3cc(CC(=O)Nc4cccc(F)c4)[nH]n3)ncnc2c1)CCOP(=O)(O)O [barasertib]
Method in brief: as §1

Row | Target | log2 fold change [1] | log2 fold change [2] | log2 fold change [3] | log2 fold change [4] | log2 fold change (Nexturastat A) | log2 fold change (vemurafenib) | log2 fold change [5] | log2 fold change [6] | log2 fold change (givinostat) | log2 fold change (barasertib)
1 | PLAA (UniProt Q9Y263) | inactive: 0.027 | inactive: -0.035 | inactive: -0.014 | inactive: 0.036 | inactive: 0.05 | inactive: 0.002 | inactive: 0.02 | inactive: -0.013 | inactive: 0.055 | inactive: 0.022
2 | PLBD1 (UniProt Q6P4A8) | inactive: 0.005 | inactive: -0.023 | inactive: 0.032 | inactive: -0.039 | inactive: 0.005 | inactive: 0.069 | inactive: -0.014 | inactive: 0.006 | inactive: -0.013 | inactive: 0.027
3 | PI4KB (UniProt Q9UBF8) | inactive: -0.013 | inactive: -0.02 | inactive: -0.025 | inactive: 0.031 | inactive: -0.045 | inactive: 0.076 | inactive: 0.019 | inactive: -0.006 | inactive: -0.013 | inactive: -0.016
4 | PGM2 (UniProt Q96G03) | inactive: -0.013 | inactive: 0.004 | inactive: -0.001 | inactive: 0.034 | inactive: -0.108 | inactive: 0.02 | inactive: -0.006 | inactive: -0.018 | inactive: -0.015 | inactive: -0.011
5 | PFN1 (UniProt P07737) | inactive: 0.02 | inactive: 0 | inactive: 0.006 | inactive: 0.017 | inactive: -0.074 | inactive: -0.019 | inactive: 0.013 | inactive: -0.003 | inactive: -0.044 | inactive: 0.025
6 | PGRMC2 isoform 2 (UniProt O15173) | inactive: -0.005 | inactive: -0.009 | inactive: 0.023 | inactive: -0.002 | inactive: 0.001 | inactive: 0.02 | inactive: -0.002 | inactive: 0.003 | inactive: -0.023 | inactive: 0.011
7 | PGAM4 (UniProt Q8N0Y7) | inactive: -0.032 | inactive: 0.033 | inactive: 0.006 | inactive: 0.009 | inactive: -0.048 | inactive: -0.001 | inactive: -0.001 | inactive: -0.027 | inactive: -0.035 | inactive: -0.012
8 | PIK3C3 (UniProt Q8NEB9) | inactive: 0.003 | inactive: 0.015 | inactive: -0.046 | inactive: -0.085 | active: 0.54 | inactive: -0.001 | inactive: 0.02 | inactive: -0.051 | inactive: 0.088 | inactive: -0.015
9 | PFKFB3 isoform 4 (UniProt Q16875) | inactive: -0.013 | inactive: -0.017 | inactive: 0.021 | inactive: -0.004 | inactive: -0.043 | inactive: 0.053 | inactive: 0.027 | inactive: 0.005 | inactive: -0.002 | inactive: 0.02
10 | PITRM1 isoform 2 (UniProt Q5JRX3) | inactive: 0.21 | inactive: -0.064 | inactive: 0.047 | inactive: 0.073 | inactive: -0.152 | inactive: 0.002 | inactive: -0.002 | inactive: 0.018 | inactive: -0.047 | inactive: -0.03
11 | PHKB isoform 3 (UniProt Q93100) | inactive: -0.109 | inactive: -0.023 | inactive: 0 | inactive: 0.012 | inactive: -0.01 | inactive: -0.042 | inactive: -0.033 | inactive: -0.017 | inactive: 0.024 | inactive: -0.008
12 | PLCD1 isoform 2 (UniProt P51178) | inactive: 0.048 | inactive: -0.008 | inactive: 0.015 | inactive: -0.021 | inactive: -0.043 | inactive: 0.003 | inactive: 0.03 | inactive: -0.006 | inactive: 0.049 | inactive: 0.053
13 | PICALM (UniProt H0YEY8) | inactive: -0.003 | inactive: 0.079 | inactive: 0.132 | inactive: -0.019 | inactive: -0.005 | inactive: 0.07 | inactive: 0.28 | inactive: -0.211 | inactive: 0.057 | inactive: -0.066
14 | PFDN2 (UniProt Q9UHV9) | inactive: 0.015 | inactive: 0.018 | inactive: 0.003 | inactive: 0.026 | inactive: -0.129 | inactive: -0.011 | inactive: -0.009 | inactive: -0.083 | inactive: -0.027 | inactive: -0.003
15 | PHF5A (UniProt Q7RTV0) | inactive: -0.019 | inactive: -0.046 | inactive: -0.023 | inactive: -0.012 | inactive: -0.017 | inactive: -0.075 | inactive: -0.064 | inactive: 0.021 | inactive: -0.075 | inactive: -0.032
16 | PHF3 (UniProt Q92576) | inactive: -0.005 | inactive: 0.045 | inactive: -0.078 | inactive: -0.103 | inactive: 0.134 | inactive: -0.058 | inactive: -0.115 | inactive: 0.061 | inactive: 0.031 | inactive: -0.059
17 | PHKG2 (UniProt P15735) | inactive: 0.012 | inactive: -0.007 | inactive: -0.083 | inactive: -0.031 | inactive: 0.002 | inactive: -0.003 | inactive: -0.004 | inactive: 0 | inactive: 0.01 | inactive: -0.079
18 | PFDN4 (UniProt Q9NQP4) | inactive: -0.024 | inactive: 0.087 | inactive: -0.033 | inactive: 0.046 | inactive: 0.083 | inactive: -0.03 | inactive: -0.006 | inactive: 0.116 | inactive: -0.02 | inactive: 0.092
19 | PEX3 (UniProt P56589) | inactive: 0.035 | inactive: -0.088 | inactive: -0.052 | inactive: 0.029 | inactive: 0.209 | inactive: -0.042 | inactive: 0.005 | inactive: 0.017 | inactive: 0.101 | 
20 | PFKL isoform 2 (UniProt P17858) | inactive: -0.049 | inactive: -0.003 | inactive: 0.027 | inactive: -0.002 | inactive: -0.049 | inactive: -0.01 | inactive: -0.016 | inactive: -0.022 | inactive: 0 | inactive: -0.009
21 | PGM2L1 (UniProt Q6PCE3) | inactive: -0.041 | inactive: 0.022 | inactive: -0.023 | inactive: -0.024 | inactive: 0.009 | inactive: -0.042 | inactive: 0.036 | inactive: 0.018 | inactive: -0.025 | inactive: 0.031
22 | PKN3 (UniProt Q6P5Z2) | inactive: -0.044 |  |  |  |  |  |  |  |  | 
23 | PHPT1 (UniProt Q9NRX4) | inactive: -0.011 | inactive: 0.01 | inactive: 0.067 | inactive: 0.016 | inactive: -0.178 | inactive: -0.003 | inactive: -0.017 | inactive: -0.035 | inactive: -0.049 | inactive: 0.016
24 | PGM3 isoform 4 (UniProt O95394) | inactive: 0.013 | inactive: -0.073 | inactive: 0.021 | inactive: 0.04 | inactive: -0.01 | inactive: 0.017 | inactive: 0.04 | inactive: 0.008 | inactive: -0.044 | inactive: 0.017
25 | PGAM1 (UniProt P18669) | inactive: 0.016 | inactive: 0.005 | inactive: 0.016 | inactive: 0 | inactive: -0.005 | inactive: 0.019 | inactive: 0.024 | inactive: -0.016 | inactive: -0.029 | inactive: -0.011
26 | PEX2 (UniProt P28328) | inactive: -0.085 | inactive: -0.041 | inactive: 0.063 | inactive: 0.021 | inactive: 0.058 | inactive: 0.041 | inactive: 0.065 | inactive: -0.089 | inactive: -0.026 | inactive: 0.021
27 | PIP4P2 (UniProt Q8N4L2) | inactive: 0.107 | inactive: -0.03 | inactive: -0.006 | inactive: -0.002 | inactive: -0.092 | inactive: -0.013 | inactive: 0.041 | inactive: -0.045 | inactive: -0.067 | inactive: 0
28 | PITPNA (UniProt Q00169) | inactive: -0.031 | inactive: -0.003 | inactive: -0.007 | inactive: -0.008 | inactive: -0.043 | inactive: -0.02 | inactive: 0.015 | inactive: -0.024 | inactive: -0.032 | inactive: -0.007
29 | PIP4K2A (UniProt P48426) | inactive: -0.027 | inactive: -0.061 | inactive: 0.017 | inactive: -0.005 | inactive: -0.051 | inactive: -0.044 | inactive: 0.004 | inactive: -0.01 | inactive: -0.052 | inactive: 0.022
30 | PHF6 (UniProt Q8IWS0) | inactive: 0.015 | inactive: -0.037 | inactive: -0.089 | inactive: -0.092 | inactive: 0.187 | inactive: -0.075 | inactive: -0.015 | inactive: 0.114 | inactive: 0.039 | inactive: -0.057

Looked up one by one from the entries so far, two records:
Row | Target | log2 fold change [1] | log2 fold change [2] | log2 fold change [3] | log2 fold change [4] | log2 fold change (Nexturastat A) | log2 fold change (vemurafenib) | log2 fold change [5] | log2 fold change [6] | log2 fold change (givinostat) | log2 fold change (barasertib)
17 | PHKG2 (UniProt P15735) | inactive: 0.012 | inactive: -0.007 | inactive: -0.083 | inactive: -0.031 | inactive: 0.002 | inactive: -0.003 | inactive: -0.004 | inactive: 0 | inactive: 0.01 | inactive: -0.079
27 | PIP4P2 (UniProt Q8N4L2) | inactive: 0.107 | inactive: -0.03 | inactive: -0.006 | inactive: -0.002 | inactive: -0.092 | inactive: -0.013 | inactive: 0.041 | inactive: -0.045 | inactive: -0.067 | inactive: 0

Reference: the supplement of paper PMC10849652
